{"source": "patent US20060241108A1", "about": "“Substituted phenoxazines and acridones as inhibitors of AKT” (St. Jude Children's Research Hospital, priority 2005, published 2006)", "test_system": "Rh1 cells", "experiment": "Cell growth inhibition, Rh1 cells", "assay_type": "cell-based, human", "conditions": "six days, cell line not stated for this comparison (growth graphs are for Rh1)", "description": "Cell lines and growth conditions. The human cell lines Rh1, Rh18, and Rh30 (ATCC Deposit # CRL 2061) have been described, e.g., by Hazelton et al. Cancer Res 1987;47:4501-4507 and Hosoi et al. Cancer Res. 1999;59:886-894. Rh1, Rh18 and Rh30 cells can each be grown in antibiotic free RPMI-1640 medium (available from BioWhittaker, Walkersville, Md.), supplemented with 10% fetal bovine serum (available from HyClone Laboratories, Logan, Utah) and 2 mM L-glutamine (available from BioWhittaker, Walkersville, Md.) at 37° C. in an atmosphere of 5% CO2. For serum free experiments, cells can be cultured in modified N2E (MN2E) medium (DMEM/F-12, 1:1 mixture) (Sigma, St. Louis, Mo.) supplemented with 1 μg/ml human holo transferrin, 30 nM sodium selenite, 20 nM progesterone, 100 μM putrescine, 30 nM vitamin E phosphate, and 50 μM ethanolamine. […]\nCell growth inhibition. […] Growth can be assessed after lysing cells, and counting nuclei. […]\nThe effect(s) of compounds, including phenoxazine compounds such as those listed in Table I, above, on cell growth can be evaluated in cell-based assays such as the exemplary assays described here. Rh1, Rh18 and/or Rh30 cells grown in complete medium can be exposed to graded concentrations of test compound (e.g., from 0.1 to 25 μM) for six days, at which time the cells can be lysed and their growth assessed by counting nuclei. […]", "note": "Some of these results come from one statement about several compounds together.", "data": [{"substance": "10-(N-pyrrolidinoacetyl)-2-chlorophenoxazine [Compound 20B]", "values": [{"measurement": "fold less inhibitory in cell growth assays than 10B and 15B", "value": "≥ 10", "unit": "fold"}]}]}
